The other results are listed elsewhere or left out. These are further read-outs of the screen, such as a control signal, another cell line or another target. No call is given for them. The list favours compounds with an active or inconclusive main result. Words in brackets tell the shape of the fitted curve; partial curves, single points and poor fits give uncertain potencies.
Assay: qHTS Assay for Lipid Storage Modulators in Drosophila S3 Cells;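 for cell number change: cells counted by Cell Tracker Red CMTPX staining in the red channel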
Settings: BODIPY lipid droplet fluorescence, 18-24 h; for cell number change: measured here: cell count max response, cells fed with added oleic acid
In short: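 Laser-scanning cytometry quantifies lipid droplet accumulation (500–530 nm total intensity; droplet/cell object ratio) in oleic acid-fed (400 uM added) Drosophila S3 cells treated with a concentration series. 20 uM Triacsin C defined 100% inhibition.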

[1] = measured here: cell number channel AC50, cells fed with added oleic acid
[2] = measured here: lipid fluorescence (Fed channel) AC50, cells fed with added oleic acid

Structure (SMILES) | cell number change | AC50 [1] | AC50 [2]
COc1ccc(-c2cnnc(N/N=C/c3ccc(OC)c(OC)c3)n2)cc1 | 17.2% | 0.259 µM [rising, full curve, poor fit] | 2.59 µM [rising, partial curve, poor fit]
CN(Cc1ccccc1)c1ccc(C(CC(N)=O)NC(=O)Cc2ccc(Br)cc2)cc1[N+](=O)[O-] (centres undefined) | -6.96% | – | 29.1 µM [falling, single point]
O=C(OCc1nc2ccccc2s1)c1ccc([N+](=O)[O-])o1 | 15.4% | – | 0.116 µM [falling, single point]
CC(OC(=O)C1CSC2(c3ccc(F)cc3)CCC(=O)N12)C(=O)NC(N)=O (centres undefined) | 30.1% | 3.26 µM [rising, partial curve, poor fit] | –
CCCCOC(=O)CSc1nc2c(cc1C#N)C(=O)CC(C)(C)C2 | – | – | 6.51 µM [rising, single point]
COC(=O)C1=C(C)N(Cc2ccccc2)C(=NCC2CC2)N[C@H]1c1ccc(Br)cc1 | -34.3% | 29.1 µM [falling, single point] | 29.1 µM [falling, partial curve, poor fit]
COc1ccc(CC(=O)OCC(=O)c2ccc(OC)c(OC)c2)cc1 | -34.1% | 0.651 µM [falling, full curve, poor fit] | 0.92 µM [falling, full curve, poor fit]
COc1cc(CNc2nnnn2C)cc(OC)c1OC | 18.5% | – | –
COc1ccccc1NC(=O)c1sc2nc3n(c(=O)c2c1C)CCC3 | 32.8% | 29.1 µM [rising, single point] | 0.651 µM [falling, partial curve, poor fit]
COC(=O)CC#N | -19.5% | 0.517 µM [falling, single point] | –
COc1cc(OC)nc(N/N=C(\c2ccccc2)c2ccncc2)n1 | – | 0.92 µM [falling, partial curve] | 7.31 µM [rising, partial curve]
CCOc1ccccc1N(CC(=O)Nc1ccc(OC)cc1)S(=O)(=O)c1ccccc1 | -19.2% | – | 7.31 µM [falling, partial curve, poor fit]
Nc1ccc(Sc2ccccc2CC(=O)O)cc1 | -19.6% | – | –
COc1cc(C)c(Cl)cc1S(=O)(=O)NCCCN1CCOCC1 | 8.75% | – | 0.461 µM [falling, full curve, poor fit]
CC(=O)NCC(=O)OCC(=O)c1ccc(Br)cc1 | 0.94% | – | 0.103 µM [rising, full curve, poor fit]
O=C(Nc1ccc(Cl)cc1)c1cc(Br)ccc1OCC(=O)N1CCOCC1 | -25.2% | – | 2.06 µM [falling, full curve]
CC1CCN(S(=O)(=O)CCNC(=O)c2ccc(F)cc2)CC1 | -13.9% | 0.517 µM [falling, full curve] | 0.517 µM [falling, full curve]
COc1ccc2oc(=O)c(C(=O)Nc3cccc(C(C)=O)c3)cc2c1 | 16.8% | – | –
CC1(C)CNC(=O)C=C(c2ccccc2)C1 | -8.09% | – | –
CC1CN(CC(O)COC(c2ccc(Cl)cc2)c2ccc(Cl)cc2)CC(C)O1 (centres undefined) | -60.7% | 23.1 µM [falling, partial curve] | 10.3 µM [falling, partial curve]

Structure (SMILES) | cell number change | AC50 [1] | AC50 [2]
Cc1cc(=O)oc2cc(OCC(=O)NC3(C#N)CCCCC3)c(Cl)cc12 | -7% | – | –
Cc1ccc(NC(=O)c2ccc3ccccc3n2)cc1S(=O)(=O)N(C)C | 13.1% | – | –
CN1CCN(Cc2coc3c(Cl)cc(Cl)cc3c2=O)CC1 | 9.68% | – | 29.1 µM [rising, partial curve, poor fit]
COc1ccc(/C=N/Nc2nc(Nc3ccccc3)nc(N3CCCCC3)n2)c(OC)c1 | 34% | 14.6 µM [rising, partial curve, poor fit] | –
Cn1c(NCCN2CCCCC2)cc(=O)n(C)c1=O | -29.2% | 3.66 µM [falling, single point] | 14.6 µM [falling, partial curve]
CCOC(=O)CCC(=O)NNC(=O)COc1ccc(C(C)C)cc1Br | 12.2% | – | 0.316 µM [rising, full curve]
O=C(N/N=C1\CCSC1)c1cc(Cl)ccc1O | -0.735% | 0.82 µM [falling, full curve] | 1.16 µM [falling, full curve]
Cc1ccccc1NC(=O)c1sc2nc3c(c(-c4ccco4)c2c1N)CCC3 | – | 0.291 µM [rising, partial curve, poor fit] | 0.461 µM [rising, full curve]
Cc1ccsc1C1C(C#N)=C(N)OC2=C1C(=O)CCC2 (centres undefined) | -14.7% | – | 32.6 µM [falling, single point]
CN(CCO)c1ccc(/C=N/Nc2nncc3ccccc23)cc1 | 16.3% | 0.82 µM [rising, full curve, poor fit] | –
COc1ccccc1CNC(=O)CSc1n[nH]c(N)n1 | 4.5% | – | –
O=C(O)CCCN1C(=O)c2ccc(C(=O)c3cccc([N+](=O)[O-])c3)cc2C1=O | -31.7% | 0.13 µM [falling, full curve, poor fit] | 0.326 µM [falling, full curve, poor fit]
CCc1nc2ccc(C(=O)N3CCN(c4cccc(OC)c4)CC3)cc2nc1CC | -9.2% | – | 6.51 µM [rising, single point]
COc1ccc(CN2C(=O)c3cccnc3C2=O)cc1S(=O)(=O)NCc1ccc(C)o1 | 77.9% | 23.1 µM [rising, single point] | 29.1 µM [falling, single point]
COc1cccc(NC(=O)CNC(=O)N2CC(=O)Nc3ccccc32)c1 | -27.6% | – | 6.51 µM [rising, single point]
Cc1ccc(S(=O)(=O)c2c(N)n(CCCN(C)C)c3nc4ccccc4nc23)cc1 | 7.25% | – | –
O=C(CN1CCN(c2ccccn2)CC1)Nc1ccccc1C(=O)Nc1ccccc1 | 49% | 8.2 µM [rising, partial curve] | –
O=C(Cn1ncc2c(=O)oc3ccccc3c21)N1CCC(N2CCCCC2)CC1 | -53.3% | 29.1 µM [falling, single point] | –
CCOc1ccc(CC(=O)NNC(=O)/C=C/C(=O)O)cc1 | 16.5% | – | 14.6 µM [rising, single point]
Cc1ccccc1-c1noc(CCC(=O)NC2CCCCC2)n1 | 21.3% | – | 6.51 µM [rising, single point]

Given field by field: entries from further up
Cc1ccccc1NC(=O)c1sc2nc3c(c(-c4ccco4)c2c1N)CCC3
  AC50 [1]: 0.291 µM [rising, partial curve, poor fit]; AC50 [2]: 0.461 µM [rising, full curve]
Cc1ccsc1C1C(C#N)=C(N)OC2=C1C(=O)CCC2 (centres undefined)
  cell number change: -14.7%; AC50 [2]: 32.6 µM [falling, single point]

Continued.

Structure (SMILES) | cell number change | AC50 [1] | AC50 [2]
O=C(Nc1ccc2c(c1)C(=O)N(c1ccccc1)C2=O)c1cccs1 | -9.87% | – | 4.11 µM [falling, full curve, poor fit]
COc1ccc(OC)c(NS(=O)(=O)c2ccc3c(c2)n(C)c(=O)n3C)c1 | 10.1% | – | 0.082 µM [rising, full curve, poor fit]
Cc1csc(NC(=O)COc2ccc3c(C)cc(=O)oc3c2)n1 | 59.7% | 1.46 µM [rising, partial curve] | 1.64 µM [rising, partial curve]
COc1ccc(C2N=C(c3ccccc3)C(C)(C)N2O)cc1OC (centres undefined) | 0.471% | – | 3.26 µM [rising, partial curve, poor fit]
CCCC(C(=O)NC(C)(C)CC)N(CC1CCCO1)C(=O)CNS(=O)(=O)c1ccc(F)cc1 (centres undefined) | 1.28% | – | –
Oc1ccc2ccccc2c1CNc1ccc(Br)cc1 | -8.16% | – | 2.06 µM [falling, partial curve]
Cc1[nH]c(=O)[nH]c(=O)c1CSc1nnc([C@@H](NC(=O)OC(C)(C)C)C(C)C)o1 | 4.02% | – | –
CCC1CCCCN1CCN1C(=O)C2C(C(=O)Nc3ccc(OC)cc3)C3C=CC2(O3)C1C(=O)NC1CCCCC1 (centres undefined) | 6.67% | – | –
CC(Oc1ccc(-c2ccccc2)cc1)C(=O)N/N=C/c1cccnc1 (centres undefined) | 10.3% | – | –
CCn1c2ccccc2c2nnc(SCC(=O)Nc3cc(C)on3)nc21 | -50.2% | 32.6 µM [falling, single point] | 1.16 µM [rising, single point]
CC(Oc1ccccc1)C(=O)N1CCN(C(=O)C(C)Oc2ccccc2)CC1 (centres undefined) | 15.7% | – | –
COCCn1c(SCC(=O)OC(C)C)nnc1-c1ccccc1 | 31.4% | 0.326 µM [rising, full curve] | –
CC(C)Nc1ccc(Nc2ccnc3cc4ccccc4cc23)cc1 | -67.9% | 13 µM [falling, partial curve] | 14.6 µM [falling, partial curve]
CC(=O)c1ccc(NC(=O)c2cc(S(=O)(=O)N3CCOCC3)ccc2C)cc1 | 23.8% | – | 6.51 µM [rising, partial curve, poor fit]
NC(=O)COC(=O)c1ccc2c(c1)S(=O)(=O)c1ccccc1C2=O | 11.7% | – | 0.92 µM [falling, full curve, poor fit]
OC(CN1CCOCC1)Cn1cnc2ccccc21 (centres undefined) | -21.1% | – | 29.1 µM [falling, single point]
COC(=O)N1CC(C)N(C(=O)OC)CC1C (centres undefined) | -15.2% | – | 0.00461 µM [falling, full curve, poor fit]
COc1ccc(-n2c(=S)[nH]c3cc(C(=O)Nc4ccc(F)cc4)ccc3c2=O)c(OC)c1 | – | – | 23.1 µM [falling, partial curve]
Cc1ccc(C(=O)N/C(=C\c2cccs2)C(=O)NCCc2c[nH]c3ccccc23)cc1 | -1.4% | – | 0.146 µM [rising, full curve, poor fit]
COc1cc(/C=C/C(=O)OCC(=O)Nc2ccc(C)c(S(=O)(=O)N3CCCCC3)c2)ccc1O | 30.3% | 7.31 µM [rising, partial curve] | 5.8 µM [rising, single point]

Source: PubChem BioAssay AID2685 (National Center for Advancing Translational Sciences (NCATS), 2010)
